Data reported in the supplement of paper PMC12823440, “Inhibitors supercharge kinase turnover through native proteolytic circuits” (Nature, 2025).
Structures can show the parent of a compound that is named as a salt. Some of the results follow. The calls rarely recur for the same compound in another form.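 Kinases, fused to nanoluciferase, were expressed in K562 cells; luminescence was measured every 4 h from 2 to 18 h as percent of control (DMSO = 100%, positive control = 0%). A time point is decreased if signal falls significantly (2 sigma). Hits were called by the authors by a rule that is not shown; the count of time points alone does not decide it.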

Amino acid sequences for entries named in this document (tags omitted). A change or cut given only in a name is not applied to a line headed by its entry.
UniProt P50613: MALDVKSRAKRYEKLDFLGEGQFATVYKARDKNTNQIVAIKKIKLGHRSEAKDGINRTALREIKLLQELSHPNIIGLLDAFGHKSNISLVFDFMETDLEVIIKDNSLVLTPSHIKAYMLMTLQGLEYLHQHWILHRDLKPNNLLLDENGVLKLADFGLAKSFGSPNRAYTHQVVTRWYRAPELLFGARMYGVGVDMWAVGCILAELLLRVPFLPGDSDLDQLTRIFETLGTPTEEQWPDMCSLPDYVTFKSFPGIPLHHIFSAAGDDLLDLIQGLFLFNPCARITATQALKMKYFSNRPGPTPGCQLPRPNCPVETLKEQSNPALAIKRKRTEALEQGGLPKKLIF

molecular target: CDK7 (UniProt P50613); test: kinase-Nluc reporter destabilization hit call (1 = scored as downregulated) (binary); higher = compound decreases kinase abundance; details: 2 µM; K562; 2-18 h

kinase-Nluc reporter destabilization hit call, inactive:
CCc1nc(C(N)=O)c(Nc2ccc(N3CCC(N4CCN(C)CC4)CC3)c(OC)c2)nc1NC1CCOCC1 [Gilteritinib] 0, CCc1nc(C(N)=O)c(Nc2ccc(N3CCC(N4CCN(C)CC4)CC3)c(OC)c2)nc1NC1CCOCC1 [Gilteritinib hemifumarate] 0, Cc1[nH]c(/C=C2\C(=O)Nc3ccc(F)cc32)c(C)c1C(=O)NCCN1CCCC1 [Toceranib (phosphate)] 0, Cc1[nH]c(/C=C2\C(=O)Nc3ccc(F)cc32)c(C)c1C(=O)NCCN1CCCC1 [Toceranib] 0

same assay, conditions: 2.5 µM; K562; 2-18 h

kinase-Nluc reporter destabilization hit call, inactive:
C=CC(=O)Nc1cc(Nc2nccc(-c3cn(C)c4ccccc34)n2)c(OC)cc1N(C)CCN(C)C [Osimertinib mesylate] 0, c1cc(-c2cnn3cc(-c4ccc(OCCN5CCCCC5)cc4)cnc23)ccn1 [Dorsomorphin] 0, CN(C)C/C=C/C(=O)Nc1cc2c(Nc3ccc(F)c(Cl)c3)ncnc2cc1O[C@H]1CCOC1 [Afatinib (dimaleate)] 0, C=CC(=O)Nc1cc(Nc2nccc(-c3cn(C)c4ccccc34)n2)c(OC)cc1N(C)CCN(C)C [Osimertinib] 0, CN(C)C(=O)c1cc2cnc(Nc3ccc(N4CCNCC4)cn3)nc2n1C1CCCC1 [Ribociclib hydrochloride] 0, COc1ccc(S(=O)(=O)Nc2ccccc2CN(C)C/C=C/c2ccc(Cl)cc2)cc1 [KN-92 (hydrochloride)] 0, COc1ccc(S(=O)(=O)Nc2ccccc2CN(C)C/C=C/c2ccc(Cl)cc2)cc1 [KN-92 (phosphate)] 0

same assay, conditions: 10 µM; K562; 2-18 h

kinase-Nluc reporter destabilization hit call, active:
CCS(=O)(=O)N1CCN(c2ccc(Nc3ncc(C(N)=O)c(NC4CC4)n3)cc2)CC1 [Cerdulatinib (hydrochloride)] 1

kinase-Nluc reporter destabilization hit call, inactive:
C[C@@H](N)c1ccc(C(=O)Nc2ccnc3[nH]ccc23)cc1 0, COc1ncc(F)cc1CNc1ccc(Cc2c[nH]c3ncc(C)cc23)c(F)n1 0, CCS(=O)(=O)N1CC(CC#N)(n2cc(-c3ncnc4[nH]ccc34)cn2)C1 [Baricitinib (phosphate)] 0, COC(=O)[C@H](CC(C)C)NC(=O)c1ccc(NC[C@@H](N)CS)cc1-c1cccc2ccccc12 [GGTI298 (Trifluoroacetate)] 0, COCCOc1cc(F)c2c(Nc3ccc(NC(=O)Cn4cc(C(C)C)nn4)cc3)ncnc2c1 [AZD3229 Tosylate] 0, CC(C)(C)n1nc(-c2cccc3ccccc23)c2c(N)ncnc21 [1-Naphthyl PP1] 0, N#CCNC(=O)c1ccc(-c2ccnc(Nc3ccc(N4CCOCC4)cc3)n2)cc1 [Momelotinib sulfate] 0, Cn1ncc(Cl)c1-c1cc(C(=O)N[C@H](CN)Cc2cccc(F)c2)sc1Cl [Afuresertib] 0, CNC(=O)c1ccc(Nc2ncc(C(F)(F)F)c(NCc3nccnc3N(C)S(C)(=O)=O)n2)cc1 [Defactinib] 0, O=C(O)c1ccc2c(c1)nc(Nc1cccc(Cl)c1)c1ccncc12 [Silmitasertib] 0, O=C(Nc1cnn2ccc(N3CCC[C@@H]3c3cc(F)ccc3F)nc12)N1CC[C@H](O)C1 [Larotrectinib] 0, COc1cc2nccc(Oc3ccc(NC(=O)C4(C(=O)Nc5ccc(F)cc5)CC4)cc3)c2cc1OC [Cabozantinib (S-malate)] 0, CN(C)C(=N)NC(=N)N [Metformin (hydrochloride)] 0, COc1ccnc(C[S+]([O-])c2nc3cc(-n4cccc4)ccc3[nH]2)c1C (stereo not given) [Ilaprazole (sodium)] 0, C#Cc1cccc(Nc2ncnc3cc4c(cc23)OCCOCCOCCO4)c1 [Icotinib (Hydrochloride)] 0, CC(C)NC[C@@H](C(=O)N1CCN(c2ncnc3c2[C@H](C)C[C@H]3O)CC1)c1ccc(Cl)cc1 [Ipatasertib] 0, CC(=O)c1c(C)c2cnc(Nc3ccc(N4CCNCC4)cn3)nc2n(C2CCCC2)c1=O [Palbociclib (monohydrochloride)] 0, C#Cc1cccc(Nc2ncnc3cc(OCCOC)c(OCCOC)cc23)c1 [Erlotinib] 0
